No constants are given. Whether binding was seen depends on the method and setting. Binding seen in cells or lysates may run through a third protein. Some results given as binding are weak or reduced against the parent protein; the word gives no strength.
Assays:
[1] = target: HA-tagged β-catenin (UniProt P35222); test: co-IP; HA-β-catenin and Flag-TAZ transiently coexpressed in AGS cells; lysates immunoprecipitated with anti-HA antibody and beads overnight at 4°C, then immunoblotted
[2] = target: TAZ (endogenous) (human (endogenous in AGS)) (UniProt Q9GZV5); test: co-IP; endogenous proteins; cell lysates immunoprecipitated with anti-TAZ antibody and beads overnight at 4°C, blotted for β-catenin; cells uninfected or cocultured with H. pylori NCTC11637 or 7.13 (MOI 100, 6 h), or with the wild-type strain or its CagA- mutant (6 h)

Sequences of proteins named here, by UniProt entry; tags and fusion partners are left off.
UniProt P35222: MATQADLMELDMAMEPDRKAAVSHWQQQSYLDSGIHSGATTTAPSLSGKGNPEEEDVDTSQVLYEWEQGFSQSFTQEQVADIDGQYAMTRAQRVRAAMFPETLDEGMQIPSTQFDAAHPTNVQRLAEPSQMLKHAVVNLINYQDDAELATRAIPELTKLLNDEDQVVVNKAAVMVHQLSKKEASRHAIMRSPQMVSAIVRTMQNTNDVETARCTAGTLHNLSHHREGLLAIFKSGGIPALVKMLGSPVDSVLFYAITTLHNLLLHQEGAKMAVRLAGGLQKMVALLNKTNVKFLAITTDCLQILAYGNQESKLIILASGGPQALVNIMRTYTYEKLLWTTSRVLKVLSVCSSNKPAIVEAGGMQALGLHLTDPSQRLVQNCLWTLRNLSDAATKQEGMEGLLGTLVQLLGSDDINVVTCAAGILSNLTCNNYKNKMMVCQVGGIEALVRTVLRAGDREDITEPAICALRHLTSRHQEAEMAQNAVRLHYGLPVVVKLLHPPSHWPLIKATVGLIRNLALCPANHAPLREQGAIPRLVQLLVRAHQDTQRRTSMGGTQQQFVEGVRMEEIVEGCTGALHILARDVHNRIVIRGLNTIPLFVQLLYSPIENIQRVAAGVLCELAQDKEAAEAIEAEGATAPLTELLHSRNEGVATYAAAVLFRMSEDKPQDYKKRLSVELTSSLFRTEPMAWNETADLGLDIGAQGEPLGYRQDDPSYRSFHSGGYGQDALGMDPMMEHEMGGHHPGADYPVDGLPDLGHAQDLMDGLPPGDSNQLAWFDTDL
UniProt Q9GZV5: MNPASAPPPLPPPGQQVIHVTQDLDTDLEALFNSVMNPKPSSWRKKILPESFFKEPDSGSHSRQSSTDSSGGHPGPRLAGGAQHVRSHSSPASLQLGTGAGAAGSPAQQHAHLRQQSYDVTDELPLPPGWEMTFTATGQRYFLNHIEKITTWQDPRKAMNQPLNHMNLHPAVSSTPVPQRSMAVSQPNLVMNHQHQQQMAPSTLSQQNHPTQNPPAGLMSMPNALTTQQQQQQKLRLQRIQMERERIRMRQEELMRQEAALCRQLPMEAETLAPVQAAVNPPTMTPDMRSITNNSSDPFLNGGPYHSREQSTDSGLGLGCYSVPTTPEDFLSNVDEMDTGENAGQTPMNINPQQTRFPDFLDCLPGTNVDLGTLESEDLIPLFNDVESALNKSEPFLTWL

| binding [1] | binding [2] | Substance |
| --- | --- | --- |
| binds |  | Flag-tagged TAZ (from UniProt Q9GZV5 1-400) |
|  | binds | β-catenin (endogenous) (from UniProt P35222 1-781) |

Reference: publication PMC9816148
